According to PubChem BioAssay AID2252 (Southern Research Specialized Biocontainment Screening …, 2010):
Several values for one entry are separate records, joined by “and”; a condition that tells them apart may be missing. Equal values may be shown once. Out of some 2,300 compounds screened, about 1,500 (65%) were called active. The rule behind the calls is not given here. The set was probably picked from earlier hits. The list shows a part of the results, in another mix than the full data.

Assay: PubChem AID 2252;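 note: 100% = mean of untreated cell control wells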
Conditions: THP-1 viability, CellTiter-Glo luminescence, 72 h; at 50 µM (top of the series)

SMILES	viability
CN(C)[C@@H]1C(=O)C(C(N)=O)=C(O)[C@@]2(O)C(=O)C3=C(O)c4c(O)cccc4[C@@](C)(O)C3[C@H](O)C12 (stereo partly drawn)	inactive: 83.1% and inactive: 99.3%
CO[C@H]1/C=C/O[C@@]2(C)Oc3c(C)c(O)c4c(O)c(c(C=NN5CCN(C)CC5)c(O)c4c3C2=O)NC(=O)/C(C)=C\C=C\[C@H](C)[C@H](O)[C@@H](C)[C@@H](O)[C@@H](C)[C@H](OC(C)=O)[C@@H]1C	inactive: 81.3%
CN1CCN(c2c(F)cc3c(=O)c(C(=O)O)cn4c3c2SCC4)CC1	inactive: 81%
